In ChEMBL document CHEMBL1687827, “Profiling the Aspergillus fumigatus proteome in response to caspofungin” (2011):
This continues a long series; more values of the same kind are listed elsewhere.

Columns and labels:
Type in all cases: functional
Aspergillus fumigatus [1] = test: Induction of change in cytosolic small ribosomal subunit protein S12 protein level in iTRAQ114 labelled cell wall fraction of drug-susceptible Aspergillus fumigatus KU80 delta-akuB at 0.12 ug/ml after 24 hrs in YPD medium by MS (MS/MS) analysis relative to control
Aspergillus fumigatus [2] = test: Induction of change in 40S ribosomal protein S10b protein level in iTRAQ114 labelled cell wall fraction of drug-resistant Aspergillus fumigatus EMFR-S678P at 0.12 ug/ml after 24 hrs in YPD medium by MS (MS/MS) analysis relative to control
Aspergillus fumigatus [3] = test: Induction of change in Ribosomal L38e protein family gene expression in drug-susceptible Aspergillus fumigatus KU80 delta-akuB at 0.12 ug/ml after 24 hrs in YPD medium by microarray analysis relative to control
Aspergillus fumigatus [4] = test: Induction of change in coenzyme A transferase PsecoA gene expression in drug-susceptible Aspergillus fumigatus KU80 delta-akuB at 0.12 ug/ml after 48 hrs in YPD medium by microarray analysis relative to control
Aspergillus fumigatus [5] = test: Induction of change in ribosomal protein L35, putative gene expression in drug-susceptible Aspergillus fumigatus KU80 delta-akuB at 0.12 ug/ml after 24 hrs in YPD medium by microarray analysis relative to control
Aspergillus fumigatus [6] = test: Induction of change in mitochondrial hypoxia responsive domain protein level in iTRAQ-116 labelled secreted fraction of drug-susceptible Aspergillus fumigatus KU80 delta-akuB at 0.12 ug/ml after 48 hrs in YPD medium by MS (MS/MS) analysis relative to control
Aspergillus fumigatus [7] = test: Induction of change in ribosomal protein S14.e protein level in iTRAQ114 labelled cell wall fraction of drug-susceptible Aspergillus fumigatus KU80 delta-akuB at 0.12 ug/ml after 24 hrs in YPD medium by MS (MS/MS) analysis relative to control
Aspergillus fumigatus [8] = test: Induction of change in cytosolic small ribosomal subunit protein S12 gene expression in drug-susceptible Aspergillus fumigatus KU80 delta-akuB at 0.12 ug/ml after 24 hrs in YPD medium by microarray analysis relative to control
Aspergillus fumigatus [9] = test: Induction of change in hypothetical protein level in iTRAQ114 labelled secreted fraction of drug-susceptible Aspergillus fumigatus KU80 delta-akuB at 0.12 ug/ml after 24 hrs in YPD medium by MS (MS/MS) analysis relative to control
Aspergillus fumigatus [10] = test: Induction of change in tripeptidyl-peptidase (TppA), putative protein level in iTRAQ-118 labelled cell wall fraction of drug-resistant Aspergillus fumigatus EMFR-S678P at 0.12 ug/ml after 24 hrs in YPD medium by MS (MS/MS) analysis relative to control
Aspergillus fumigatus [11] = test: Induction of change in Mitochondrial hypoxia-responsive domain protein level in iTRAQ114 labelled cell wall fraction of drug-resistant Aspergillus fumigatus EMFR-S678P at 0.12 ug/ml after 24 hrs in YPD medium by MS (MS/MS) analysis relative to control
Aspergillus fumigatus [12] = test: Induction of change in 60s ribosomal protein l21 gene expression in drug-susceptible Aspergillus fumigatus KU80 delta-akuB at 0.12 ug/ml after 24 hrs in YPD medium by microarray analysis relative to control
Aspergillus fumigatus [13] = test: Induction of change in 60S ribosomal protein L7 protein level in iTRAQ114 labelled cell wall fraction of drug-resistant Aspergillus fumigatus EMFR-S678P at 0.12 ug/ml after 24 hrs in YPD medium by MS (MS/MS) analysis relative to control
Aspergillus fumigatus [14] = test: Induction of change in hexokinase Kxk, putative protein level in iTRAQ-116 labelled secreted fraction of drug-susceptible Aspergillus fumigatus KU80 delta-akuB at 0.12 ug/ml after 48 hrs in YPD medium by MS (MS/MS) analysis relative to control
Aspergillus fumigatus [15] = test: Induction of change in allergen Asp F4 protein level in iTRAQ-118 labelled cell wall fraction of drug-susceptible Aspergillus fumigatus KU80 delta-akuB at 0.12 ug/ml after 24 hrs in YPD medium by MS (MS/MS) analysis relative to control
Aspergillus fumigatus [16] = test: Induction of change in Ribosomal L28e protein family gene expression in drug-susceptible Aspergillus fumigatus KU80 delta-akuB at 0.12 ug/ml after 24 hrs in YPD medium by microarray analysis relative to control
Aspergillus fumigatus [17] = test: Induction of change in 60S ribosomal protein L19 protein level in iTRAQ-118 labelled cell wall fraction of drug-resistant Aspergillus fumigatus EMFR-S678P at 0.12 ug/ml after 24 hrs in YPD medium by MS (MS/MS) analysis relative to control
Aspergillus fumigatus [18] = test: Induction of change in ribosomal protein L16a protein level in iTRAQ114 labelled cell wall fraction of drug-susceptible Aspergillus fumigatus KU80 delta-akuB at 0.12 ug/ml after 24 hrs in YPD medium by MS (MS/MS) analysis relative to control
Aspergillus fumigatus [19] = test: Induction of change in Ran-specific GTPase-activating protein 1, putative protein level in iTRAQ-116 labelled secreted fraction of drug-susceptible Aspergillus fumigatus KU80 delta-akuB at 0.12 ug/ml after 48 hrs in YPD medium by MS (MS/MS) analysis relative to control
Aspergillus fumigatus [20] = test: Induction of change in 40S ribosomal protein S9 protein level in iTRAQ114 labelled cell wall fraction of drug-resistant Aspergillus fumigatus EMFR-S678P at 0.12 ug/ml after 24 hrs in YPD medium by MS (MS/MS) analysis relative to control
Aspergillus fumigatus [21] = test: Induction of change in ribosomal protein L37 gene expression in drug-susceptible Aspergillus fumigatus KU80 delta-akuB at 0.12 ug/ml after 24 hrs in YPD medium by microarray analysis relative to control
Aspergillus fumigatus [22] = test: Induction of change in hypothetical gene locus AFUA_5G07590 expression in drug-susceptible Aspergillus fumigatus KU80 delta-akuB at 0.12 ug/ml after 48 hrs in YPD medium by microarray analysis relative to control
Aspergillus fumigatus [23] = test: Induction of change in molecular chaperone and allergen Mod-E/Hsp90/Hsp1 protein level in iTRAQ-116 labelled secreted fraction of drug-susceptible Aspergillus fumigatus KU80 delta-akuB at 0.12 ug/ml after 48 hrs in YPD medium by MS (MS/MS) analysis relative to control
Aspergillus fumigatus [24] = test: Induction of change in alkaline serine protease gene expression in drug-susceptible Aspergillus fumigatus KU80 delta-akuB at 0.12 ug/ml after 24 hrs in YPD medium by microarray analysis relative to control
Aspergillus fumigatus [25] = test: Induction of change in NAD-dependent formate dehydrogenase protein level in iTRAQ-116 labelled cell wall fraction of drug-susceptible Aspergillus fumigatus KU80 delta-akuB at 0.12 ug/ml after 48 hrs in YPD medium by MS (MS/MS) analysis relative to control
Aspergillus fumigatus [26] = test: Induction of change in cytosolic large ribosomal subunit protein L30 protein level in iTRAQ114 labelled cell wall fraction of drug-susceptible Aspergillus fumigatus KU80 delta-akuB at 0.12 ug/ml after 24 hrs in YPD medium by MS (MS/MS) analysis relative to control

Compound: CC[C@H](C)C[C@H](C)CCCCCCCCC(=O)N[C@H]1C[C@@H](O)[C@@H](NCCN)NC(=O)[C@@H]2[C@@H](O)CCN2C(=O)[C@H]([C@H](O)CCN)NC(=O)[C@H]([C@H](O)[C@@H](O)c2ccc(O)cc2)NC(=O)[C@@H]2C[C@@H](O)CN2C(=O)[C@H]([C@@H](C)O)NC1=O [CASPOFUNGIN]
- fold change (FC) (Aspergillus fumigatus [1]): 1.5
- fold change (FC) (Aspergillus fumigatus [2]): 1.07
- fold change (FC) (Aspergillus fumigatus [3]): 4.2
- fold change (FC) (Aspergillus fumigatus [4]): -4.4
- fold change (FC) (Aspergillus fumigatus [5]): 3.9
- fold change (FC) (Aspergillus fumigatus [6]): >-16
- fold change (FC) (Aspergillus fumigatus [7]): 1.5
- fold change (FC) (Aspergillus fumigatus [8]): 4.9
- fold change (FC) (Aspergillus fumigatus [9]): -2.3
- fold change (FC) (Aspergillus fumigatus [10]): -1.07
- fold change (FC) (Aspergillus fumigatus [11]): 1.15
- fold change (FC) (Aspergillus fumigatus [12]): 4.8
- fold change (FC) (Aspergillus fumigatus [13]): -1.07
- fold change (FC) (Aspergillus fumigatus [14]): 3.2
- fold change (FC) (Aspergillus fumigatus [15]): -4.3
- fold change (FC) (Aspergillus fumigatus [16]): 5.6
- fold change (FC) (Aspergillus fumigatus [17]): 1.23
- fold change (FC) (Aspergillus fumigatus [18]): 1.9
- fold change (FC) (Aspergillus fumigatus [19]): -3.7
- fold change (FC) (Aspergillus fumigatus [20]): -1.07
- fold change (FC) (Aspergillus fumigatus [21]): 4.9
- fold change (FC) (Aspergillus fumigatus [22]): -2.8
- fold change (FC) (Aspergillus fumigatus [23]): -2.1
- fold change (FC) (Aspergillus fumigatus [24]): 5.5
- fold change (FC) (Aspergillus fumigatus [25]): -1.3
- fold change (FC) (Aspergillus fumigatus [26]): 1.6
